# Test results from article PMC11094083.
# By UniProt entry, the sequences of proteins in these tests, tags left out.
# UniProt Q8VDS3: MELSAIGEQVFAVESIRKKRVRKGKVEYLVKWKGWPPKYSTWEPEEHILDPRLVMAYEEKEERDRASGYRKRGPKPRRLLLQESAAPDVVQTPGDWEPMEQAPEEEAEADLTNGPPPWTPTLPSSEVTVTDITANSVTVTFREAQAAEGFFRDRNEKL
# These are yes or no findings as the source states them, for the method shown. In cells and extracts the contact can be indirect. Some binding calls cover weakened binding; strength is not graded here. Sequences can lack the tags named with a protein.
# Biological target: T1, B-lymphoma Mo-MLV insertion region (BMI1), HA-tagged (UniProt P25916)
# T1 sequence: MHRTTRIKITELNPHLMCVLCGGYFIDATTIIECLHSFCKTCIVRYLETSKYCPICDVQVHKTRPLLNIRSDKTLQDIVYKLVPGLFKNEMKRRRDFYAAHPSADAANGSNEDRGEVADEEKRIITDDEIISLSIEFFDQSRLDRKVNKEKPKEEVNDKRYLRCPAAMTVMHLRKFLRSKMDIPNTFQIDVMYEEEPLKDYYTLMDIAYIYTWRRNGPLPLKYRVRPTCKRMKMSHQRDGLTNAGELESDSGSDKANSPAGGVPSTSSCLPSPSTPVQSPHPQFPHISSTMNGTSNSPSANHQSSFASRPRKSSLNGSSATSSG
# Test: co-IP; NCTC 1469 cells overexpressing His-tagged CBX7 or HA-tagged BMI1 for 24 h; 2.5 mg precleared lysate incubated overnight at 4 °C with 6 μg anti-BMI1 or anti-CBX7; protein G-Sepharose beads; SDS-PAGE and immunoblotting
substance,measurement,value
"chromobox 7 (CBX7), His-tagged (from UniProt Q8VDS3 1-158)",binding,binds
